# Experimental data: the supplement of paper PMC8728848
# The other results are listed elsewhere or left out.
# How the values were obtained:
# Experiment in all cases: glycan array binding signal (z-score within array); higher = stronger binding
# Settings in all cases: glycan notation: IUPAC condensed, linker removed
# [1] = target: Neu5Ac(a2-3)Gal(b1-4)GlcNAc(b1-3)GalNAc
# In short: (§1)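 The binding signal is a Z-score computed within each array and averaged over linkers. Arrays of the same protein sequence at different concentrations or buffers were also averaged together. Data originate from 3228 arrays in the Consortium for Functional Glycomics database, kept only where the protein sequence was available.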
# [2] = target: Neu5Ac(a2-3)Gal(b1-4)GlcNAc(b1-3)[Neu5Ac(a2-3)Gal(b1-4)GlcNAc(b1-6)]GalNAc
# In short: as §1
# [3] = target: Neu5Ac(a2-3)Gal(b1-4)GlcNAc(b1-6)GalNAc
# In short: as §1
# [4] = target: Neu5Ac(a2-3)Gal(b1-4)GlcNAc(b1-6)[Gal(b1-3)]GalNAc
# In short: as §1
# [5] = target: Neu5Ac(a2-3)Gal(b1-4)GlcNAc(b1-6)[Neu5Ac(a2-3)Gal(b1-3)]GalNAc
# In short: as §1
# [6] = target: Neu5Ac(a2-3)Gal(b1-4)GlcNAc6S
# In short: as §1
# [7] = target: Neu5Ac(a2-3)Gal(b1-4)[Fuc(a1-3)]GlcNAc
# In short: as §1
# [8] = target: Neu5Ac(a2-3)Gal(b1-4)[Fuc(a1-3)]GlcNAc(b1-2)Man
# In short: as §1
# [9] = target: Neu5Ac(a2-3)Gal(b1-4)[Fuc(a1-3)]GlcNAc(b1-3)Gal
# In short: as §1
# [10] = target: Neu5Ac(a2-3)Gal(b1-4)[Fuc(a1-3)]GlcNAc(b1-3)Gal(b1-4)GlcNAc
# In short: as §1
# [11] = target: Neu5Ac(a2-3)Gal(b1-4)[Fuc(a1-3)]GlcNAc(b1-3)Gal(b1-4)[Fuc(a1-3)]GlcNAc(b1-3)Gal(b1-4)[Fuc(a1-3)]GlcNAc
# In short: as §1
# [12] = target: Neu5Ac(a2-3)Gal(b1-4)[Fuc(a1-3)]GlcNAc(b1-3)GalNAc
# In short: as §1
# [13] = target: Neu5Ac(a2-3)Gal(b1-4)[Fuc(a1-3)]GlcNAc(b1-6)[Gal(b1-3)]GalNAc
# In short: as §1
# [14] = target: Neu5Ac(a2-3)Gal(b1-4)[Fuc(a1-3)]GlcNAc(b1-6)[Neu5Ac(a2-3)Gal(b1-3)]GalNAc
# In short: as §1
# [15] = target: Neu5Ac(a2-3)Gal(b1-4)[Fuc(a1-3)]GlcNAc6S
# In short: as §1
# [16] = target: Neu5Ac(a2-3)Gal6S(b1-4)GlcNAc
# In short: as §1
# [17] = target: Neu5Ac(a2-3)Gal6S(b1-4)[Fuc(a1-3)]GlcNAc
# In short: as §1
# [18] = target: Neu5Ac(a2-3)GalNAc
# In short: as §1
# [19] = target: Neu5Ac(a2-3)GalNAc(b1-4)GlcNAc
# In short: as §1
# [20] = target: Neu5Ac(a2-3)[GalNAc(b1-4)]Gal(b1-4)Glc
# In short: as §1
# [21] = target: Neu5Ac(a2-3)[GalNAc(b1-4)]Gal(b1-4)GlcNAc
# In short: as §1
# [22] = target: Neu5Ac(a2-3)[GalNAc(b1-4)]Gal(b1-4)GlcNAc(b1-3)GalNAc
# In short: as §1
# [23] = target: Neu5Ac(a2-3)[Neu5Ac(a2-6)]GalNAc
# In short: as §1
# [24] = target: Neu5Ac(a2-6)Gal
# In short: as §1
# [25] = target: Neu5Ac(a2-6)Gal(b1-3)GlcNAc(b1-3)[Gal(b1-4)GlcNAc(b1-6)]Gal(b1-4)Glc
# In short: as §1
# [26] = target: Neu5Ac(a2-6)Gal(b1-4)Glc
# In short: as §1
# [27] = target: Neu5Ac(a2-6)Gal(b1-4)GlcNAc
# In short: as §1
# [28] = target: Neu5Ac(a2-6)Gal(b1-4)GlcNAc(b1-2)Man
# In short: as §1
# [29] = target: Neu5Ac(a2-6)Gal(b1-4)GlcNAc(b1-2)Man(a1-3)Man(b1-4)GlcNAc(b1-4)GlcNAc
# In short: as §1
# [30] = target: Neu5Ac(a2-6)Gal(b1-4)GlcNAc(b1-2)Man(a1-3)[Gal(b1-4)GlcNAc(b1-2)Man(a1-6)]Man(b1-4)GlcNAc(b1-4)GlcNAc
# In short: as §1
# [31] = target: Neu5Ac(a2-6)Gal(b1-4)GlcNAc(b1-2)Man(a1-3)[GlcNAc(b1-2)Man(a1-6)]Man(b1-4)GlcNAc(b1-4)GlcNAc
# In short: as §1
# [32] = target: Neu5Ac(a2-6)Gal(b1-4)GlcNAc(b1-2)Man(a1-3)[GlcNAc(b1-2)Man(b1-4)GlcNAc(b1-2)Man(a1-6)]Man(b1-4)GlcNAc(b1-4)GlcNAc
# In short: as §1
# [33] = target: Neu5Ac(a2-6)Gal(b1-4)GlcNAc(b1-2)Man(a1-3)[GlcNAc(b1-4)][Neu5Ac(a2-6)Gal(b1-4)GlcNAc(b1-2)Man(a1-6)]Man(b1-4)GlcNAc(b1-4)GlcNAc
# In short: as §1
# [34] = target: Neu5Ac(a2-6)Gal(b1-4)GlcNAc(b1-2)Man(a1-3)[Man(a1-6)]Man(b1-4)GlcNAc(b1-4)GlcNAc
# In short: as §1
# [35] = target: Neu5Ac(a2-6)Gal(b1-4)GlcNAc(b1-2)Man(a1-3)[Neu5Ac(a2-3)Gal(b1-4)GlcNAc(b1-2)Man(a1-6)]Man(b1-4)GlcNAc(b1-4)GlcNAc
# In short: as §1
# [36] = target: Neu5Ac(a2-6)Gal(b1-4)GlcNAc(b1-2)Man(a1-3)[Neu5Ac(a2-6)Gal(b1-4)GlcNAc(b1-2)Man(a1-6)]Man(b1-4)GlcNAc(b1-4)GlcNAc
# In short: as §1
# [37] = target: Neu5Ac(a2-6)Gal(b1-4)GlcNAc(b1-2)Man(a1-3)[Neu5Ac(a2-6)Gal(b1-4)GlcNAc(b1-2)Man(a1-6)]Man(b1-4)GlcNAc(b1-4)[Fuc(a1-6)]GlcNAc
# In short: as §1
# [38] = target: Neu5Ac(a2-6)Gal(b1-4)GlcNAc(b1-2)Man(a1-6)Man(b1-4)GlcNAc(b1-4)GlcNAc
# In short: as §1
binder,measurement,setting,value
"LlpA1 (Pseudomonas fluorescens), Q4KHC3 (protein) MGSSHHHHHHSSGLVPRGSHMAWIRYDFTDNGSSVLPARYYMAPNQYLQSPNKRFKLLFQADGNLALYDGAQLAWVADQNTPFTNVSKGNKKDPMMVFMNYGFVLDDPLRGRIWSTTPSDPTMGSREDASLRAFTQVQDDGNIVTVDTIPHWYAPNGRVFTPAVGAAMIIGGTTELVPGQFYSAGEHSLVFQGDGNLVVYGPNSSVIWATYTQNKGGVRCVMQEDGNLVIYAANNGVVWQSGTGGHPGATIRLQANGSFTIVTERPVWARFGYTPTIKPPRVFYPDHKWKTGSYTWNNVF",glycan array binding signal (z-score),[1],-0.31
same,glycan array binding signal (z-score),[2],-0.316
same,glycan array binding signal (z-score),[3],0.357
same,glycan array binding signal (z-score),[4],0.173
same,glycan array binding signal (z-score),[5],-0.232
same,glycan array binding signal (z-score),[6],-0.206
same,glycan array binding signal (z-score),[7],-0.498
same,glycan array binding signal (z-score),[8],-0.25
same,glycan array binding signal (z-score),[9],-0.646
same,glycan array binding signal (z-score),[10],-0.021
same,glycan array binding signal (z-score),[11],0.285
same,glycan array binding signal (z-score),[12],0.206
same,glycan array binding signal (z-score),[13],0.034
same,glycan array binding signal (z-score),[14],2.08
same,glycan array binding signal (z-score),[15],0.043
same,glycan array binding signal (z-score),[16],0.343
same,glycan array binding signal (z-score),[17],-0.706
same,glycan array binding signal (z-score),[18],-0.179
same,glycan array binding signal (z-score),[19],-0.283
same,glycan array binding signal (z-score),[20],-0.67
same,glycan array binding signal (z-score),[21],-0.711
same,glycan array binding signal (z-score),[22],-0.576
same,glycan array binding signal (z-score),[23],-0.786
same,glycan array binding signal (z-score),[24],-0.771
same,glycan array binding signal (z-score),[25],-0.201
same,glycan array binding signal (z-score),[26],0.584
same,glycan array binding signal (z-score),[27],-0.374
same,glycan array binding signal (z-score),[28],-0.802
same,glycan array binding signal (z-score),[29],-0.561
same,glycan array binding signal (z-score),[30],0.164
same,glycan array binding signal (z-score),[31],-0.477
same,glycan array binding signal (z-score),[32],2.45
same,glycan array binding signal (z-score),[33],-0.209
same,glycan array binding signal (z-score),[34],0.498
same,glycan array binding signal (z-score),[35],-0.556
same,glycan array binding signal (z-score),[36],-0.374
same,glycan array binding signal (z-score),[37],0.195
same,glycan array binding signal (z-score),[38],-0.485

# 3 consecutive records already listed, for reference:
binder,measurement,setting,value
"LlpA1 (Pseudomonas fluorescens), Q4KHC3 (protein) MGSSHHHHHHSSGLVPRGSHMAWIRYDFTDNGSSVLPARYYMAPNQYLQSPNKRFKLLFQADGNLALYDGAQLAWVADQNTPFTNVSKGNKKDPMMVFMNYGFVLDDPLRGRIWSTTPSDPTMGSREDASLRAFTQVQDDGNIVTVDTIPHWYAPNGRVFTPAVGAAMIIGGTTELVPGQFYSAGEHSLVFQGDGNLVVYGPNSSVIWATYTQNKGGVRCVMQEDGNLVIYAANNGVVWQSGTGGHPGATIRLQANGSFTIVTERPVWARFGYTPTIKPPRVFYPDHKWKTGSYTWNNVF",glycan array binding signal (z-score),[8],-0.25
same,glycan array binding signal (z-score),[9],-0.646
same,glycan array binding signal (z-score),[10],-0.021
